# Experimental data reported in PubChem BioAssay AID540276 (National Center for Advancing Translational Sciences (NCATS), 2011).
# Screen size: about 300,000 compounds; about 5,400 (1.8%) were called active. Inconclusive means that the source gave no clear call. Such entries were picked first, then a sample of the others. Calls come from the whole dose curve; tested in HEK293 cells. A potency beside an inconclusive call is a rough fit, not a confirmed value.
# Assay: qHTS for inhibitors of binding or entry into cells for Marburg Virus
# Details: Marburg virus pseudotyped entry inhibition, cell reporter; series mostly up to 37.8 µM
# Potency is the fitted concentration of half-maximal effect.
row,SMILES,Potency
1,Cc1ccc(NC(=O)C(OC(=O)c2cc(C)oc2C)c2ccccc2)cc1 (centres undefined),"inconclusive: 15.8 µM [inhibitor, single point]"
2,Cc1nn(Cc2ccc([N+](=O)[O-])cc2)c(=O)n1-c1cccc(F)c1,"inconclusive: 7.3 µM [inhibitor, partial curve, poor fit]"
3,COc1cccc(CN2C(=O)c3ccccc3Sc3ccc(C(=O)NCCc4ccc(Cl)cc4)cc32)c1,inactive
4,CC1(C)Cc2c(C#N)c(SCCC#N)nc(N3CCOCC3)c2CS1,inactive
5,O=[N+]([O-])c1cccc(Cl)c1NCCNc1ncc(C(F)(F)F)cc1Cl,"inconclusive: 3.16 µM [activator, single point]"
6,CCC(=O)OC1CCC2C3CCC4CC(=O)C=CC4(C)C3CCC12C (centres undefined),"inconclusive: 31.6 µM [inhibitor, single point]"
7,O=C(O)c1ccc(Cl)cc1NC(=O)C1CCCO1 (centres undefined),inactive
8,O=S(=O)(NCC1CCCO1)c1cnc(Cl)c(Br)c1 (centres undefined),"inconclusive: 23.1 µM [inhibitor, single point]"
9,O=C(CCNC(=O)c1ccccc1)NNC(=O)c1ccccc1Br,"inconclusive: 1.58 µM [activator, full curve, poor fit]"
10,COc1ccccc1C1C2=C(N=c3s/c(=C/c4cccc(OCC(=O)O)c4)c(=O)n31)c1ccccc1CC2 (centres undefined),inactive
11,O=C1C2C3CCC(C3)C2C(=O)N1Cc1ccccc1 (centres undefined),"inconclusive: 35.5 µM [activator, single point]"
12,COc1ccc(C(C(=O)NC2CCCC2)N(Cc2ccccc2)C(=O)c2snc(C(N)=O)c2N)cc1OC (centres undefined),"inconclusive: 2.51 µM [inhibitor, single point]"
13,Cc1cc(C(=O)OCC(=O)Nc2nnc(C(C)C)s2)c2ccccc2n1,"inconclusive: 1.26 µM [activator, single point]"
14,Cc1cccc2c1-c1sc(C(=O)NCCc3ccc(Cl)cc3)cc1CO2,inactive
15,COc1cccc(/C=C/c2n[nH]c(=O)c(C#N)c2C)c1,"inconclusive: 6.31 µM [inhibitor, single point]"
16,CN(C)c1ccc(C(=O)NCC2CCCO2)cc1 (centres undefined),"inconclusive: 16.4 µM [activator, single point]"
17,Cc1ccc(-c2[nH]c3ccccc3c2SCCNC(=O)c2ccc(S(=O)(=O)N3CCOCC3)cc2)cc1,"inconclusive: 28.2 µM [inhibitor, single point]"
18,O=C(Cc1ccc(Cl)cc1)N1CCN(c2ccc(F)cc2)CC1,"inconclusive: 35.5 µM [inhibitor, single point]"
19,Cc1cnc(NC(=O)Nc2ccc(OCc3ccccc3)cc2)c(Br)c1,"inconclusive: 7.94 µM [activator, partial curve, poor fit]"

# Ordered by length of the SMILES (low to high): part of the list above
row,SMILES,Potency
19,Cc1cnc(NC(=O)Nc2ccc(OCc3ccccc3)cc2)c(Br)c1,"inconclusive: 7.94 µM [activator, partial curve, poor fit]"
14,Cc1cccc2c1-c1sc(C(=O)NCCc3ccc(Cl)cc3)cc1CO2,inactive
3,COc1cccc(CN2C(=O)c3ccccc3Sc3ccc(C(=O)NCCc4ccc(Cl)cc4)cc32)c1,inactive
